Reference: article PMC5249261
No constants are given. Whether binding was seen depends on the method and setting. Binding seen in cells or lysates may run through a third protein. For part of these data: Binding can be weak; no strength is given.

Legend:
T7-Vps41 (mouse) = biological target: T1, T7-Vps41 (mouse) (UniProt Q5KU39); assay: co-IP; COS-7 cells co-transfected with T7-Vps39 or T7-Vps41 and a FLAG-tagged Rab; lysed two days later; immunoprecipitated with anti-T7 antibody; detected by immunoblots
T1 sequence: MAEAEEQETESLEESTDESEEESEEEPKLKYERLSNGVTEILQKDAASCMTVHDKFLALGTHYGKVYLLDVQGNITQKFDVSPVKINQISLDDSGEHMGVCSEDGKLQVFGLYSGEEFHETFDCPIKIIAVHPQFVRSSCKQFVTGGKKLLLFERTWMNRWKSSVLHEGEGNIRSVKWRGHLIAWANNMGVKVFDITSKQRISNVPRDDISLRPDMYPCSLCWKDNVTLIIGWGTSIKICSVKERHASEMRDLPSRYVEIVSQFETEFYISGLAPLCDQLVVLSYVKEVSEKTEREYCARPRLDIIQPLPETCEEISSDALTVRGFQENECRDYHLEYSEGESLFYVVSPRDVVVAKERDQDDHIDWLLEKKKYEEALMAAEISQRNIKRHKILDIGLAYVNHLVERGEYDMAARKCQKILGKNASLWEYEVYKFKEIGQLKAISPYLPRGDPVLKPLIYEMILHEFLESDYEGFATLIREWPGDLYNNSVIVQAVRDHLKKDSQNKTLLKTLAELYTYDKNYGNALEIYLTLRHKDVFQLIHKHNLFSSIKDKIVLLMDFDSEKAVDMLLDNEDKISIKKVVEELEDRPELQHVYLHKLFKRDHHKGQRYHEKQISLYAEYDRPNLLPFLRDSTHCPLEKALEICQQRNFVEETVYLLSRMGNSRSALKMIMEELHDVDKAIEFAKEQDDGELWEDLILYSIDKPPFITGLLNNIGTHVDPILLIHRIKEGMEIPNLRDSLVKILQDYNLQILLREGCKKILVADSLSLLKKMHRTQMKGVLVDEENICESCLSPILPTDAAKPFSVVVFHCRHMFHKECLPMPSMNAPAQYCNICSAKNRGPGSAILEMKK

T7-Vps39 (mouse) = biological target: T2, T7-Vps39 (mouse) (UniProt Q8R5L3); assay: as above
T2 sequence: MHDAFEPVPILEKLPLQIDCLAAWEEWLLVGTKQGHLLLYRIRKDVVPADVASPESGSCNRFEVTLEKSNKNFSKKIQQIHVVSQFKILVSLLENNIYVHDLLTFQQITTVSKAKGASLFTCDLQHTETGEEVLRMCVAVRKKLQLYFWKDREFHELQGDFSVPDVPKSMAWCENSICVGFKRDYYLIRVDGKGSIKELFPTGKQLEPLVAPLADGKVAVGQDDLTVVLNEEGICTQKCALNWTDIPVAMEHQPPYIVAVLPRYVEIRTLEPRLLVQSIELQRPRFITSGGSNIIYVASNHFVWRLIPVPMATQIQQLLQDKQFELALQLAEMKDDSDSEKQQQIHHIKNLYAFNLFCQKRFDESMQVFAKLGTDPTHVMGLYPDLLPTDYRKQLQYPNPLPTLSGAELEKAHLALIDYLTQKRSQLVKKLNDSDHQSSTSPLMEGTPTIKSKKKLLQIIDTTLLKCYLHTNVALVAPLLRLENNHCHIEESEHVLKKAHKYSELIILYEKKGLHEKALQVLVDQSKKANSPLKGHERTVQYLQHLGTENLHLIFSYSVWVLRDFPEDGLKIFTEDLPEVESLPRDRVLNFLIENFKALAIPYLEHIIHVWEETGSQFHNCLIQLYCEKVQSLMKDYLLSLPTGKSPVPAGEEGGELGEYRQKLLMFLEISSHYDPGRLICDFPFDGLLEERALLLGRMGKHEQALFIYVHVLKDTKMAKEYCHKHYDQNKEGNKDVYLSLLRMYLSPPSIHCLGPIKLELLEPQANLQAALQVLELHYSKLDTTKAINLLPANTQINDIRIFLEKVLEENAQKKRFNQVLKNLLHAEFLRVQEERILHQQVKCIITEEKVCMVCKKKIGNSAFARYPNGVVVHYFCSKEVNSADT

binding (T7-Vps41 (mouse)) | binding (T7-Vps39 (mouse)) | Substance
binds | – | FLAG-tagged Rab7 (mouse)
no binding | no binding | FLAG-tagged Rab5 (mouse)
